Data taken from ChEMBL document CHEMBL3988442, “University of Dundee, Small-Polar-MMV Screening Library” (2021).

Sequences of proteins named here, by UniProt entry; tags and fusion partners are left off.
UniProt E9BF75, entry or part of it: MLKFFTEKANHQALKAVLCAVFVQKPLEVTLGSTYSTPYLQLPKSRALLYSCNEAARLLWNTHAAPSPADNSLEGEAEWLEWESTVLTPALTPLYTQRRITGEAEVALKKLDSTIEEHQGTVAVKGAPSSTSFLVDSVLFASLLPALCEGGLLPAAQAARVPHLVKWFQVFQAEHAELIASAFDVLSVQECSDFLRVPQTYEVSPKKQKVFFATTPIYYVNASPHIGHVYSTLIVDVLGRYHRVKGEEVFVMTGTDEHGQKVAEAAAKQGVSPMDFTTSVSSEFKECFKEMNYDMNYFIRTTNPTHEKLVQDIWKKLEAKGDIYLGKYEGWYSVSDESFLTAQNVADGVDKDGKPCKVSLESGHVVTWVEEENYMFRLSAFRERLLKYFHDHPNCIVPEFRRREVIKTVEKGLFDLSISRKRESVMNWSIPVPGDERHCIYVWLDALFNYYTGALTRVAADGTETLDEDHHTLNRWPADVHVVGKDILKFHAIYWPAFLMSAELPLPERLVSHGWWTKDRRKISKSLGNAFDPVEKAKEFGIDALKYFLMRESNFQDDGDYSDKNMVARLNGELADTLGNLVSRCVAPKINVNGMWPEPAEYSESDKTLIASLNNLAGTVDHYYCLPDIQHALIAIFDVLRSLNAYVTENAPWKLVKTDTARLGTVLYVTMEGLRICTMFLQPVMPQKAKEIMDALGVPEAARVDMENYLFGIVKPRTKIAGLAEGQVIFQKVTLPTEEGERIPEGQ

All values are in %.
The controls that fix the scale are not given in the record; negative values are as filed.
The compounds are a random part of those screened.

A: 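Primary screen of methionyl-tRNA synthetase; the read-out is not stated. Target: Methionyl-tRNA synthetase (putative), Leishmania donovani (UniProt E9BF75). The test concentration is not given. Values are per cent inhibition. About 68,000 compounds were tested under these conditions; 0.035% (about 24) showed 50% or more at least once.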
B: 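Assay on Mycobacterium tuberculosis, filed only as a heat shock assay from Cornell; the read-out is not stated. The concentration is filed as 10 mM, unlikely as a test dose, so the dose is not known. The record gives no direction; compounds that gave an IC50 in retests scored well above the rest, so higher reads as stronger inhibition. About 69,000 compounds were tested under these conditions; 1.4% (about 930) showed 50% or more at least once.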

{"structure": "Cc1ccc(NC(=O)[C@H]2C[C@H](C(=O)O)CN(CC3CC3)C2)cn1", "A": 7.05, "B": 9.785}
{"structure": "COc1cccc2cc(CNC(=O)N3CCOC(C)(C)C3)oc12", "A": 11.55, "B": -28.56}
{"structure": "OC1(CNCCSCc2ccccc2)CCCNC1", "stereo": "stereo not given", "A": 4.692, "B": -33.07}
{"structure": "CC(C)c1nn(C)c(N(C)C)c1CNC1CCCCNC1=O", "stereo": "stereo not given", "A": 12.14, "B": -1.764}
{"structure": "CC(NC(=O)Nc1cccnc1N1CCCC1)c1ccn(C)c1", "stereo": "stereo not given", "A": 28.53, "B": -11.32}
{"structure": "COc1ncccc1C(=O)N1CCCC(c2cc(C)[nH]n2)C1", "stereo": "stereo not given", "A": -1.961, "B": -1.312}
{"structure": "Cc1[nH]c(=O)[nH]c(=O)c1CN1CCCC(CCc2ccc(F)c(F)c2)C1", "stereo": "stereo not given", "A": 7.829, "B": 25.77}
{"structure": "CC(=O)Nc1ccc(-c2ccccc2CCN)cc1", "A": 17.34, "B": 35.05}
{"structure": "O=C(CCCNC(=O)Nc1ccc(F)cc1)Nc1cn[nH]c1", "A": 8.807, "B": 11.87}
{"structure": "CS(=O)(=O)c1ccc(NC(=O)NCc2ccc(F)cc2)cn1", "A": 15.04, "B": -20.6}
{"structure": "Cc1ccc(CN2CCC3(CC2)CCN(C(=O)c2cccn2C)C3)cc1", "A": 21.29}
{"structure": "COC[C@]1(O)CCN(c2cc(N3CCOCC3)ncn2)CC1(C)C", "A": 7.588, "B": 15.14}
{"structure": "Cc1nc(NCCc2ccc(Cl)cc2)cc(C(=O)N2CCOCC2)n1", "A": 9.449, "B": 32.75}
{"structure": "O=C(O)C(F)(F)F.O=C(O)C(F)(F)F.[H][C@@]12CCN(C(=O)c3cnccn3)C[C@]1([H])[C@@H](CN1CCN(C)CC1)OC2", "B": -24.75}
{"structure": "Cn1cnnc1S(=O)(=O)C1CCN(C(=O)c2cccs2)CC1", "A": 2.174, "B": 4.039}
{"structure": "CCn1nc(C)cc1C(=O)N1CCOc2ccc(OC)cc21", "A": 20.17, "B": -15.14}
{"structure": "CCc1ncc2c(n1)CN(C(C(N)=O)c1ccccc1)CC2", "stereo": "stereo not given", "A": 12.1, "B": -11.77}
{"structure": "CC(=O)N1CCC(Cc2cnc(-c3c(C)nn(C)c3C)cn2)CC1", "A": 19.62, "B": 17.08}
{"structure": "c1cc(CN2CCc3c(CN4CCCC4)n[nH]c3C2)ccn1", "A": 5.797, "B": -14.24}
{"structure": "O=C(O)C(F)(F)F.O=C(O)C(F)(F)F.[H][C@]12CCC[C@@]1(COCc1ccncc1)CN(C(=O)c1ccc(C)nc1)C2", "B": 7.083}
{"structure": "CCOc1ccc(CNC(=O)c2cnc(OC)nc2)cc1", "A": 8.696, "B": 28.53}
{"structure": "O=C(O)C(F)(F)F.[H][C@@]12CCN(Cc3nccs3)[C@]1([H])CC[C@@H](C(=O)N(C)C)O2", "B": 11.33}
{"structure": "CC1Oc2c(cccc2C(=O)N2CCN(CC(C)(C)O)CC2)NC1=O", "stereo": "stereo not given", "A": 16.7, "B": 12.19}
{"structure": "Cc1ccc(N[C@@H]2CN(Cc3cc(C)on3)C[C@@H]3CCCO[C@@H]32)nn1", "A": 16.75}
{"structure": "N#Cc1cnc2c(F)cc(F)cc2c1NC1CCN(CC(N)=O)CC1", "A": 14.74, "B": 9.22}
{"structure": "Cc1occc1C(=O)N1CCC2(CCC2NC(=O)c2ccn(C)c2)CC1", "stereo": "stereo not given", "A": 18.52, "B": 7.63}
{"structure": "c1csc(SCC2CN=C(N3CCOCC3)S2)c1", "stereo": "stereo not given", "A": 25, "B": -33.6}
{"structure": "CCn1cc(S(=O)(=O)NCc2ccnc(-n3ccnc3)c2)cn1", "A": 3.073, "B": 19.61}
{"structure": "O=C(Nc1cccc(N2CCN(CC3CC3)CC2)c1)C1CCCO1", "stereo": "stereo not given", "A": 8.614, "B": -15.1}
{"structure": "CC(=O)Nc1nc(CN2CCOC(Cn3cccn3)C2)cs1", "stereo": "stereo not given", "A": 14.36, "B": -4.626}
{"structure": "CCc1ccc(CN2C[C@@H](C)C3(CCN(CC(=O)N(C)C)C3=O)C2)o1.O=C(O)C(F)(F)F", "stereo": "stereo not given in full", "B": -2.267}
{"structure": "COCCN1CCC2(C1)c1ccccc1S(=O)(=O)N2Cc1ccccc1", "stereo": "stereo not given", "A": 8.271}
{"structure": "COc1ccccc1CNC(Cn1cncn1)c1ccccc1", "stereo": "stereo not given", "A": 11.91, "B": 5.438}
{"structure": "CN(C)Cc1ccc(C2CCCCN2C(=O)c2ncccc2O)cc1", "stereo": "stereo not given", "A": 9.89, "B": -5.736}
{"structure": "Cc1cc(CNC(=O)C2CCC(=O)N(Cc3ccccc3F)C2)on1", "stereo": "stereo not given", "A": 5.025, "B": -9.91}
{"structure": "Cc1cnn(CC2CN(c3nnc(C)c(C)c3C#N)CCO2)c1", "stereo": "stereo not given", "A": 14.21, "B": 12.29}
{"structure": "CC(C)Cc1noc(CN2CCC(C(=O)NCC3CCCO3)CC2)n1", "stereo": "stereo not given", "A": 10.88, "B": -17.47}